# From paper PMC12040169 (PLOS Biology, 2025)
# The other results are listed elsewhere or left out.
# System: T1, CTL2-GFP (C. trachomatis L2/434/Bu, GFP-expressing)
# T1 construct: L2/434/Bu, GFP-expressing
# Parameters: species or system HeLa; Intracellular C. trachomatis growth in HeLa cells, bulk GFP fluorescence relative to DMSO
# Conditions: bulk GFP, single well; 28.5 h, 10 µM; inhibitor
row,Structure (SMILES),% of control remaining [%]
1,COc1ccc([C@H]2CN(C(=O)c3ccccn3)[C@@H]3CCCN(C(C)=O)[C@H]23)cc1 [CBK285523],122.752
2,CC(CCc1ccccc1)N(C)CCN(C)C (stereo not drawn) [CBK261933],103.976
3,O=C(CN1C2CCC1CC(O)(c1ccco1)C2)NCc1ccccc1 (stereo not drawn) [CBK284105],104.368
4,O=C(Cn1cc(-c2ccc(CN3CCCCC3)cc2)nn1)NCc1ccc(Cl)cc1Cl [CBK167689],162.08
5,Cc1ccc2cc(CN(Cc3cccs3)C(=O)NCc3ccccc3)c(=O)[nH]c2c1C [CBK068496],100
6,CS(=O)(=O)N1CC2(CCN(CC(=O)c3ccsc3)CC2)c2ccccc21 [CBK144595T],117.504
7,Cn1c(-c2ccccc2)cnc1NC(=O)C1CN(S(=O)(=O)c2ccc(F)cc2)C1 [CBK285945],113.579
8,CC(C)[C@H](CO)Nc1cncc(-c2ccc(F)cc2F)n1 [CBK065883],112.236
9,CS(=O)(=O)c1ccc(-c2ccc3ccc(=O)[nH]c3n2)cc1 [CBK073719],116.172
10,Cc1cc(CNS(=O)(=O)c2cccc3nonc23)nn1C [CBK062157],112.323
11,O=C(O)c1cccc(Nc2nc(-c3ccccc3)nc3ccccc23)c1 [CBK263941C],125.319
12,C=CCNC(=O)CSc1nc(O)cc(=O)[nH]1 [CBK073298],105.486
13,COc1cc(C2NC(=O)NC(O)(C(F)(F)F)C2C(=O)c2ccccc2)ccc1OCc1ccccc1 (stereo not drawn) [CBK264957],117.277
14,COC(=O)c1sc(N2CCOCC2)c(C#N)c1N [CBK006430],151.231
15,O=C(c1ccoc1)N1CCN(S(=O)(=O)c2ccc3c(c2)Cc2cc(S(=O)(=O)N4CCN(C(=O)c5ccco5)CC4)ccc2-3)CC1 [CBK262299],100.468
16,O=C(O)c1cccc(-c2ccc(/C=C3\SC(=S)N(Cc4ccco4)C3=O)o2)c1 [CBK265726],149.203
17,Cc1occc1-c1nnc(SC2CCCCN(C(=O)c3ccc(Cl)cc3)C2=O)n1C (stereo not drawn) [CBK296990],126.501
18,O=C(O)/C(Cl)=C(\Cl)C(=O)N1CCC2(CC1)OCCc1c2[nH]c2ccccc12 [CBK047035],109.279
19,Cc1ncsc1C(=O)N1CCNCC1c1cccc(F)c1 (stereo not drawn) [CBK305463],113.129
20,NS(=O)(=O)c1ccc(NC(=S)Nc2cccc(C(=O)O)c2)cc1 [CBK266880],66.4788
21,CCn1nc(C)c(NC(=O)c2ncoc2-c2ccc(F)cc2)c1C [CBK282360],121.538

# Part of the list above in order of heavy-atom count, ascending:
row,Structure (SMILES),% of control remaining [%]
20,NS(=O)(=O)c1ccc(NC(=S)Nc2cccc(C(=O)O)c2)cc1 [CBK266880],66.4788
11,O=C(O)c1cccc(Nc2nc(-c3ccccc3)nc3ccccc23)c1 [CBK263941C],125.319
18,O=C(O)/C(Cl)=C(\Cl)C(=O)N1CCC2(CC1)OCCc1c2[nH]c2ccccc12 [CBK047035],109.279
